Measurements taken from PMC6904836 (International Journal for Parasitology: Drugs and Drug …, 2019).

Columns and labels:
[1] = system: L. major (MHOM/SA/85/JISH118); test: L. major - BALB/c mouse model of CL; type: in vivo, BALB/c mice; settings: for % reduction Lesion size / % reduction Parasite load: 10 days, n = 5; for % reduction Parasite load: qPCR day 11
[2] = system: L. tropica (MHOM/SU/74/K-27 WR-2995); test: Luciferase amastigote macrophage assay in RAW 264.7; type: cell-based; settings: Leishmania tropica, RAW264.7, 96 h, read-out: EC50 L. tropica
[3] = 50 mg/kg/day, compared to the untreated control

EC50 [2]: 2360 nM
SMILES: O=[N+]([O-])c1cn2c(n1)O[C@@H](COc1ccc(-c3ccc(F)cc3)nc1)CC2 [DNDI-0690]
lesion size reduction [1, 3]: no visible nodule | reduction of the parasite load as measured by qPCR [1, 3]: ~2 log-fold | % reduction Lesion size ([1]; Oral, 6.25 mg/kg, QD): 72.1% | % reduction Parasite load ([1]; Oral, 6.25 mg/kg, QD): 50.19% | % reduction Lesion size ([1]; Oral, 12.5 mg/kg, QD): 74.3% | % reduction Parasite load ([1]; Oral, 12.5 mg/kg, QD): 81.24% | % reduction Lesion size ([1]; Oral, 25 mg/kg, QD): 86.4% | % reduction Parasite load ([1]; Oral, 25 mg/kg, QD): 84.18% | % reduction Lesion size ([1]; Oral, 50 mg/kg, QD): 100.0% | % reduction Parasite load ([1]; Oral, 50 mg/kg, QD): 94.89% | % reduction Parasite load ([1]; Topical, Sat sol in PG-EtOH (1:1), 50 μl BID): 50.74%
